PubChem BioAssay AID743454 – Peter MacCallum Cancer Centre, 2014

Aim: 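Genes whose loss kills vorinostat-resistant colon cancer cells under vorinostat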 (primary screen)
Cell system: human HCT116-VR colon cancer cells, selected for vorinostat resistance
Knock-down reagent: siRNA pool against human genes, 40 nM siRNA pool
Time to read-out: vorinostat for 24 h, read-out about 72 h after transfection
Conditions: vorinostat at 2.5 µM final
Measurement: 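Two measures, CellTiter-Fluor viability and luminescent caspase 3/7 activity, each as fold change against same-plate mock wells, mean of duplicates, then screen-wide robust z-score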
Reading the numbers: viability robust z-score: higher = more viable cells than screen typical; caspase robust z-score: higher = more caspase 3/7 activity than screen typical
Active means: 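Hits are knock-downs in viability class RV1/RV2 or caspase class CA1/CA2, excluding ones that killed cells in the no-drug cell-count arm; hits then retested with single siRNAs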
The deposit covers about 18,000 reagents; shown is an unselected part. Of all reagents, 450 (2.5%) were called active. 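Single biological run; no consistent viability z cut-off exists, so the class columns, not z-scores, define the calls.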 No sequences are given here.

| gene | viability hit class | caspase hit class | viability robust z-score | caspase robust z-score | Call |
| --- | --- | --- | --- | --- | --- |
| KHDC1 (KH domain containing 1) | no change | no change | 1.48 | 0.45 | inactive |
| FARS2 (phenylalanyl-tRNA synthetase 2, mitochondrial) | no change | no change | 0.67 | 0.24 | inactive |
| USP48 (ubiquitin specific peptidase 48) | no change | no change | 0.49 | 1.4 | inactive |
| TIMM23B (translocase of inner mitochondrial membrane 23 homolog B) | no change | no change | -1.46 | 1.42 | inactive |
| TOR1AIP1 (torsin 1A interacting protein 1) | no change | no change | 1.23 | -0.38 | inactive |
| FAM78B (family with sequence similarity 78 member B) | no change | no change | -0.22 | 1.72 | inactive |
| ADAM17 (ADAM metallopeptidase domain 17) | no change | no change | 0.96 | -0.79 | inactive |
| BYSL (bystin like) | no change | no change | -2.9 | -0.6 | inactive |
| PCNX4 (pecanex 4) | no change | no change | 1.31 | 0.5 | inactive |
| FNBP4 (formin binding protein 4) | no change | no change | -0.05 | 0.12 | inactive |
| STAB2 (stabilin 2) | no change | no change | 0.36 | 0.26 | inactive |
| DEFB124 (defensin beta 124) | no change | no change | 0.5 | -0.68 | inactive |
| ETFB (electron transfer flavoprotein subunit beta) | no change | no change | -1.71 | 0.44 | inactive |
| ATP1A2 (ATPase Na+/K+ transporting subunit alpha 2) | no change | no change | 1 | -0.51 | inactive |
| CDC42EP3 (CDC42 effector protein 3) | no change | no change | 0.53 | 2.3 | inactive |
| BAAT (bile acid-CoA:amino acid N-acyltransferase) | no change | no change | -0.62 | 1.66 | inactive |
| SELENBP1 (selenium binding protein 1) | no change | no change | -0.25 | 1.33 | inactive |
| ECE1 (endothelin converting enzyme 1) | no change | no change | 0.75 | 1.25 | inactive |
| ZCWPW2 (zinc finger CW-type and PWWP domain containing 2) | no change | no change | -0.19 | -0.32 | inactive |
| FOLR1 (folate receptor alpha) | no change | no change | -1.34 | 0.7 | inactive |
| VAPA (VAMP associated protein A) | no change | no change | 0.68 | -1.15 | inactive |
| CYP4F3 (cytochrome P450 family 4 subfamily F member 3) | no change | no change | -0.08 | 1.96 | inactive |
| MOG (myelin oligodendrocyte glycoprotein) | no change | no change | -1.25 | 0.16 | inactive |
| SCAMP2 | no change | no change | 0.28 | -0.62 | inactive |
| CA1 (carbonic anhydrase 1) | no change | no change | -0.34 | 0.55 | inactive |
| ZNF8 (zinc finger protein 8) | no change | no change | 0.07 | 1.71 | inactive |
| LRP5L (LDL receptor related protein 5 like (pseudogene)) | no change | no change | -0.99 | -0.85 | inactive |
| ADGRL2 (adhesion G protein-coupled receptor L2) | no change | no change | -0.6 | 0.48 | inactive |
| AGR2 | no change | no change | -0.52 | -0.36 | inactive |
| SLF1 (SMC5/6 complex localization factor 1) | no change | no change | 0.26 | 1.42 | inactive |
| PDPR (pyruvate dehydrogenase phosphatase regulatory subunit) | no change | no change | -0.39 | -0.37 | inactive |
| TNFSF18 (TNF superfamily member 18) | no change | no change | 0.88 | 0.22 | inactive |
| IFNG (interferon gamma) | no change | no change | 0.05 | 1.31 | inactive |
| MEGF9 (multiple EGF like domains 9) | no change | no change | 1.1 | -0.66 | inactive |
| OR8B2 (olfactory receptor family 8 subfamily B member 2) | no change | no change | -0.62 | -0.49 | inactive |
| CD300LD-AS1 (CD300LD antisense RNA 1) | no change | no change | 0.26 | 0.18 | inactive |
| ARMC3 (armadillo repeat containing 3) | no change | no change | 0.12 | -1.09 | inactive |
| ERGIC1 (endoplasmic reticulum-golgi intermediate compartment 1) | no change | no change | 0.55 | 0.66 | inactive |
| H2BC17 (H2B clustered histone 17) | no change | no change | -1.3 | 2.6 | inactive |
